These are yes or no findings as the source states them, for the method shown. A result given as binding can be weak or reduced; the word gives no strength. Sequences can lack the tags named with a protein.
Biological target: cytosolic C-terminal fragment of AKT2 fused to the DNA-binding domain (BD:CtAKT2) (Arabidopsis thaliana)
Assay: two-hybrid; Matchmaker Gold; BD:CtAKT2 as bait (pGBKT7), AD:CtMRH1 as prey (pGADT7); library screen and direct test; growth on medium lacking adenine, histidine, tryptophan and leucine with aureobasidin A, 30 °C

B1: cytosolic C-terminal fragment of the MRH1 kinase fused to the activation domain (AD:CtMRH1) (domain or fragment, UniProt C0LGQ4 527-678)
chain: AAKVSEIPFNLEARLNPKKHVSGDLEQTSLLLPPEPEANVHSFGVLMLEIISGKLSFSDEYGSIEQWASKYLEKDDLGEMIDPSLKTFKEEELEVICDVIRECLKTEQRQRPSMKDVAEQLKQVINITPEKATPRSSPLWWAELEILSSEAT
  binding: binds
